Results deposited as PubChem BioAssay AID1259285 (Sanger Institute, 2017)
Assay: 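Kinases needed for HCC56 growth and kinases whose loss boosts drug effects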 (primary screen). Cells: human HCC56 colorectal cancer cells. Reagent: siRNA pool against human genes. Challenge: DMSO vehicle, or anchor drug BYL719 at 1 µM, cetuximab at 5 µg/ml, or trametinib at 10 nM. Detection: 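Viability as a ratio to non-targeting pool wells, averaged over replicates and turned into a robust z-score; synergy scores with BYL719, cetuximab or trametinib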. Scale: viability robust z-score, no drug: higher = more viable cells, weaker knock-down effect; viability vs non-targeting pool, no drug: higher = more viable cells. Call rule: 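a knock-down counts as essential if its viability z-score without drug is under -3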. Meaning of the calls: active = essential without drug; inactive = no change without drug.
The deposit covers 794 reagents; below is an unselected part. Over the whole deposit, 20 (2.5%) got an active call. 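Calls rest on the drug-free arm alone and ignore synergy scores; viability ratios seem to be capped at 1.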 Not all columns of the deposit are shown. No sequences are given here. The record does not give: the amount of reagent, the time to read-out.

target gene	viability robust z-score, no drug	viability vs non-targeting pool, no drug	Call
MAP2K2	-0.834	0.889	inactive
ADCK5	0.458	1	inactive
KCNH8	-1.8	0.806	inactive
CERK	0.458	1	inactive
MAP3K12	-1.02	0.873	inactive
TNIK	0.458	1	inactive
LATS1	0.458	1	inactive
PRP4K	-1.97	0.792	inactive
MAPK15	0.458	1	inactive
EPHB3	0.458	1	inactive
HCK	-1.37	0.843	inactive
DGKG	0.458	1	inactive
ULK4	-0.221	0.942	inactive
SGK3	-1.37	0.843	inactive
CLK3	0.458	1	inactive
TRPM7	0.458	1	inactive
CHD4	-3.96	0.62	active
MAP3K3	-1.09	0.867	inactive
NF1	0.458	1	inactive
TWF1	0.458	1	inactive
MARK1	0.315	0.988	inactive
PRKAA1	0.458	1	inactive
PTK2	0.458	1	inactive
CSNK2A2	0.458	1	inactive
ABL1	0.458	1	inactive
VRK2	0.0361	0.964	inactive
HASPIN	0.458	1	inactive
ADCK2	-2.9	0.712	inactive
PHKG1	0.458	1	inactive
CAMKV	0.458	1	inactive
COQ8B	0.458	1	inactive
ADCK1	0.458	1	inactive
LTK	0.458	1	inactive
RPS6KB1	-1.47	0.834	inactive
CDK8	0.458	1	inactive
PEAK1	-1.05	0.871	inactive
AK1	0.391	0.994	inactive
AXIN2	0.458	1	inactive
FGR	0.458	1	inactive
BRDT	0.458	1	inactive
MAPK11	0.458	1	inactive
NRAS	0.458	1	inactive
CDADC1	0.458	1	inactive
STK38L	-2.22	0.77	inactive
CSF1R	-3.34	0.673	active
NME4	0.458	1	inactive
PAPSS1	0.458	1	inactive
WHR1	0.458	1	inactive
TSSK2	-0.538	0.914	inactive
GAK	0.448	0.999	inactive
CDKN2B	0.458	1	inactive
BUB1	0.458	1	inactive
AGK	0.458	1	inactive
STK17B	-0.575	0.911	inactive
SIK3	0.458	1	inactive
TSSK1B	0.374	0.993	inactive
ALPK2	0.458	1	inactive
DTYMK	0.458	1	inactive
MASTL	0.458	1	inactive
CHEK2	0.458	1	inactive
RBM10	0.458	1	inactive
JAK2	0.458	1	inactive
GK	0.458	1	inactive

Entries listed so far marked active, once more:
target gene	viability robust z-score, no drug	viability vs non-targeting pool, no drug	Call
CHD4	-3.96	0.62	active
CSF1R	-3.34	0.673	active
